Measurements published in patent US9169295B2 (Bristol-Myers Squibb Company, priority 2010, dated 2015).

Experiment: general procedure: peptide synthesis; EDC / 1-hydroxy-7-azabenzotriazole / N-methylmorpholine
Conditions: cyclisation step, TFA salt, cyclic, sequence written open

Substance: Thia-V(d)AAAAY
- final HPLC purity (Condition A): >90%
- final HPLC purity (Condition B): >91%
- final HPLC purity (Condition C): >99%
- cyclisation yield: 22.3%
